Consider 37 compounds from the supplement of paper PMC3741180, “A Novel High Throughput Biochemical Assay to Evaluate the HuR Protein-RNA Complex Formation” (PLoS ONE, 2013).

Sequences of proteins named here, by UniProt entry; tags and fusion partners are left off.
UniProt Q15717, whole entry: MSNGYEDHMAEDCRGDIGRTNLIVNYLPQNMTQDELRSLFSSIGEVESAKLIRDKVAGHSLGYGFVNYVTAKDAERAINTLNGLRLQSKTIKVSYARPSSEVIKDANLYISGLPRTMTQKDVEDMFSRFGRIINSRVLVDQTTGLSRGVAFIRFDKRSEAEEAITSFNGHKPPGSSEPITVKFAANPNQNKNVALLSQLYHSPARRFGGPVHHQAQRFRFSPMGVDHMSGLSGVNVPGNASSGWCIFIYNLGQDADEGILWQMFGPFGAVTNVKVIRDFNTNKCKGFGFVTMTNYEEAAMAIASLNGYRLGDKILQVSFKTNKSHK

SMILES strings stand for the structures. This is one part of the list. This data set is noisy: repeats of one test often differ as much as different tests do.

This assay addresses HuR (ELAVL1) - TNFalpha ARE RNA complex (UniProt Q15717). Description: AlphaScreen HuR-RNA complex signal Z-score relative to positive controls (secondary screen) (Z-score (SD units of positive control)); higher = more complex signal. The following applies: screen stage: secondary re-screen. In general terms: Bead proximity is the source of the signal in Alpha formats.
For `CCOC(=O)[C@H](CCc1ccccc1)N[C@@H](C)C(=O)N1[C@H](C(=O)O)C[C@@H]2CCC[C@@H]21`, the “AlphaScreen HuR-RNA complex signal Z-score” value amounted to 1.25.

As to `O=C([O-])[C@H]1/C(=C/CO)O[C@@H]2CC(=O)N21.[Li+]`, the “AlphaScreen HuR-RNA complex signal Z-score” value was 1.77.

Turning to `CCOC(=O)[C@H](CCc1ccccc1)N[C@H]1CCc2ccccc2N(CC(=O)O)C1=O`, the “AlphaScreen HuR-RNA complex signal Z-score” value amounted to 2.02.

As to `Cc1onc(-c2ccccc2Cl)c1C(=O)N[C@@H]1C(=O)N2[C@@H]1SC(C)(C)[C@@H]2C(=O)O`, the “AlphaScreen HuR-RNA complex signal Z-score” value came out at 0.906.

For the compound `C[C@]12CC[C@@H]3c4ccc(OS(=O)(=O)O)cc4CC[C@H]3[C@@H]1CCC2=O`, the “AlphaScreen HuR-RNA complex signal Z-score” value came to 0.916.

Take `S=c1[nH]cnc2nc[nH]c12`: the “AlphaScreen HuR-RNA complex signal Z-score” value was determined as 1.06.

Consider `O=C1[C@H](CC[C@H](O)c2ccc(F)cc2)[C@@H](c2ccc(O)cc2)N1c1ccc(F)cc1`, for which the “AlphaScreen HuR-RNA complex signal Z-score” value came out at 2.04.

Regarding `O=C(O)CCC(=O)OC[C@@H](NC(=O)C(Cl)Cl)[C@H](O)c1ccc([N+](=O)[O-])cc1`, the “AlphaScreen HuR-RNA complex signal Z-score” value stood at 0.978.

`O=C1c2ccccc2C(=O)C1(O)C1(O)C(=O)c2ccccc2C1=O`: the “AlphaScreen HuR-RNA complex signal Z-score” value stood at 0.681.

Turning to `O=C(O)c1cc(/N=N/c2ccc(S(=O)(=O)Nc3ccccn3)cc2)ccc1O`, the “AlphaScreen HuR-RNA complex signal Z-score” value amounted to 3.55.

With `NNCCc1ccccc1`, the “AlphaScreen HuR-RNA complex signal Z-score” value was found to be 1.3.

As to `CC(=O)O[C@]1(C(C)=O)CC[C@H]2[C@@H]3C=C(Cl)C4=CC(=O)[C@@H]5C[C@@H]5[C@]4(C)[C@H]3CC[C@@]21C`, the “AlphaScreen HuR-RNA complex signal Z-score” value amounted to 0.434.

Turning to `C=C[C@H]1CN2CC[C@H]1C[C@H]2[C@H](O)c1ccnc2ccc(OC)cc12`, the “AlphaScreen HuR-RNA complex signal Z-score” value was 1.57.

As for `COC(=O)Nc1nc2cc([S+]([O-])c3ccccc3)ccc2[nH]1` (configuration not stated), the “AlphaScreen HuR-RNA complex signal Z-score” value was -0.284.

Turning to `OCCc1ccccc1`, the “AlphaScreen HuR-RNA complex signal Z-score” value was 0.0775.

For the compound `CCn1cc(C(=O)O)c(=O)c2cnc(N3CCCC3)nc21`, the “AlphaScreen HuR-RNA complex signal Z-score” value worked out at 0.164.

As for `O=c1[nH]cc(F)c(=O)[nH]1`, the “AlphaScreen HuR-RNA complex signal Z-score” value amounted to 0.987.

As for `Cc1ccc(N(CC2=NCCN2)c2cccc(O)c2)cc1`, the “AlphaScreen HuR-RNA complex signal Z-score” value turned out to be 1.54.

`O=C(O)c1cn(-c2ccc(F)cc2)c2cc(N3CCNCC3)c(F)cc2c1=O`: the “AlphaScreen HuR-RNA complex signal Z-score” value is -0.00228.

Consider `O=C(O)c1cc(-c2ccc(F)cc2F)ccc1O`, for which the “AlphaScreen HuR-RNA complex signal Z-score” value came out at 0.616.

Take `CCCC(=O)Nc1ccc(OCC(O)CNC(C)C)c(C(C)=O)c1` (configuration not stated): the “AlphaScreen HuR-RNA complex signal Z-score” value was 1.86.

Consider `O=C(N[C@H](CO)[C@H](O)c1ccc([N+](=O)[O-])cc1)C(Cl)Cl`, for which the “AlphaScreen HuR-RNA complex signal Z-score” value came out at 0.766.

For `Nc1ccc(S(=O)(=O)Nc2nccs2)cc1`, the “AlphaScreen HuR-RNA complex signal Z-score” value was 1.61.

For `Oc1c(I)cc(Cl)c2cccnc12`, the “AlphaScreen HuR-RNA complex signal Z-score” value is 0.803.

As to `CC1(C)OC(=O)NC1=O`, the “AlphaScreen HuR-RNA complex signal Z-score” value was found to be 0.883.

Regarding `CCCc1nc(C(C)(C)O)c(C(=O)OCc2oc(=O)oc2C)n1Cc1ccc(-c2ccccc2-c2nnn[nH]2)cc1`, the “AlphaScreen HuR-RNA complex signal Z-score” value worked out at 2.11.

As for `C[C@]12CCC(=O)C=C1C=C[C@@H]1[C@@H]2CC[C@@]2(C)[C@H]1CC[C@@]21CCC(=O)O1`, the “AlphaScreen HuR-RNA complex signal Z-score” value was found to be 1.72.

`CN(C)CCN(Cc1ccccc1)c1ccccn1`: the “AlphaScreen HuR-RNA complex signal Z-score” value came to 1.91.

Consider `C[C@@H]1C[C@H]2[C@@H]3CCC4=CC(=O)C=C[C@]4(C)[C@@]3(F)[C@@H](O)C[C@]2(C)[C@@]1(O)C(=O)COP(=O)(O)O`, for which the “AlphaScreen HuR-RNA complex signal Z-score” value was 0.717.

In the case of `Cc1noc(NS(=O)(=O)c2ccc(N)cc2)c1C`, the “AlphaScreen HuR-RNA complex signal Z-score” value stood at 2.27.

For `COc1ccc(C(Cl)=C(c2ccc(OC)cc2)c2ccc(OC)cc2)cc1`, the “AlphaScreen HuR-RNA complex signal Z-score” value was determined as 1.04.

As to `Cc1onc(-c2c(Cl)cccc2Cl)c1C(=O)N[C@@H]1C(=O)N2[C@@H]1SC(C)(C)[C@@H]2C(=O)O`, the “AlphaScreen HuR-RNA complex signal Z-score” value was determined as 0.871.

Take `O=c1c(O)cccc2cc(O)c(O)c(O)c12`: the “AlphaScreen HuR-RNA complex signal Z-score” value came out at 0.0905.

In the case of `CCc1nc(N)nc(N)c1-c1ccc(Cl)cc1`, the “AlphaScreen HuR-RNA complex signal Z-score” value was 1.12.

Take `COC1=CC(=O)C=C(OC)C1=O`: the “AlphaScreen HuR-RNA complex signal Z-score” value turned out to be 0.323.

For `NS(=O)(=O)c1cc2c(cc1Cl)NC(C(Cl)Cl)NS2(=O)=O` (configuration not stated), the “AlphaScreen HuR-RNA complex signal Z-score” value came to 1.08.

For `NS(=O)(=O)c1cc2c(cc1Cl)N=CNS2(=O)=O`, the “AlphaScreen HuR-RNA complex signal Z-score” value was 0.408.
